# Test results taken from paper doi:10.1101/746180.
# The chains behind the UniProt entries cited, without tags or fusion partners. Where a name states a change or a piece, a line headed by the entry shows the natural chain unless it says otherwise. A line that says so, or that is headed by a name, gives the form on record, which may keep a tag or linker. Residues count along the entry.
# UniProt Q9H2F5: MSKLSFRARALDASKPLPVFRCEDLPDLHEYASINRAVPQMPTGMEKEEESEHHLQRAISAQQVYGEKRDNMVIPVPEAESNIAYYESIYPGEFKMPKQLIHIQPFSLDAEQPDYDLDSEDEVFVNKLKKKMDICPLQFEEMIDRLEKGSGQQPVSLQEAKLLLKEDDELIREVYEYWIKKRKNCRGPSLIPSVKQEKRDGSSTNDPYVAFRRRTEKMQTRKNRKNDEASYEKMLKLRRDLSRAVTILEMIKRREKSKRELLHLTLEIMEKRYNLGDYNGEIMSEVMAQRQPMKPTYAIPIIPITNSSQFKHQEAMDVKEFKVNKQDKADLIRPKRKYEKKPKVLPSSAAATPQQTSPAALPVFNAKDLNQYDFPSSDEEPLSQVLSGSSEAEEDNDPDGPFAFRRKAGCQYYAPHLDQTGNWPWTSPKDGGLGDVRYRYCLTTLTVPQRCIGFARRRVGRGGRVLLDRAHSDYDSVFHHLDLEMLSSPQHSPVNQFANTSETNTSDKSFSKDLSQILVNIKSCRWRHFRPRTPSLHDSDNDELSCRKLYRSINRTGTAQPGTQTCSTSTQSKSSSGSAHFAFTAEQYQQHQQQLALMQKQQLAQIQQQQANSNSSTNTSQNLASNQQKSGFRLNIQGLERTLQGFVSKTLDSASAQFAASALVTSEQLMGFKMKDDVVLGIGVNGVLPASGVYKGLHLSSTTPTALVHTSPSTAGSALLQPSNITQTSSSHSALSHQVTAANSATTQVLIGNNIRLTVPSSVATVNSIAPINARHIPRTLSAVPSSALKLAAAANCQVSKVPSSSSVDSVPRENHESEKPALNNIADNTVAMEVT
# 3xFlag-tagged EPC1(1-464): residues 1-464 of Q9H2F5
# GST-EPC1(644-799): residues 644-799 of Q9H2F5
# GST-EPC1(644-672): residues 644-672 of Q9H2F5
# GST-EPC1(673-776): residues 673-776 of Q9H2F5
# GST-EPC1(729-799): residues 729-799 of Q9H2F5
# UniProt Q05BQ5: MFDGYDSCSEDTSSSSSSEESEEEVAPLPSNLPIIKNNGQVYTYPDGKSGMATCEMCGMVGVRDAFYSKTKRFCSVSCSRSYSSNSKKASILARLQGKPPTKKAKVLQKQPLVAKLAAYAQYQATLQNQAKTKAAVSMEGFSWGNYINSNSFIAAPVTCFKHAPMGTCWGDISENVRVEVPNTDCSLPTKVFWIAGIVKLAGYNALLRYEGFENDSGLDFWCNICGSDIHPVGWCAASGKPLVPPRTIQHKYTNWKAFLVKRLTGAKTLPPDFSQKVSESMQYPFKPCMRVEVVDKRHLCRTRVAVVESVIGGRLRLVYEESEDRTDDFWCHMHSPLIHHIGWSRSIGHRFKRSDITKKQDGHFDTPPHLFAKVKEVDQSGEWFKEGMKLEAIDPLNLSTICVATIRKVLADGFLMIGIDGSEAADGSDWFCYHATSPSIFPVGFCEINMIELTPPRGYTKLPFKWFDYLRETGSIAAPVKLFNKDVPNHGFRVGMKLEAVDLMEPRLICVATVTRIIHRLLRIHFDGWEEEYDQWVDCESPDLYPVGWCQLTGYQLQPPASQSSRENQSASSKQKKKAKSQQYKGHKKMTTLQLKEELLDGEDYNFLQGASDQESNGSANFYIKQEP
# UniProt Q92993: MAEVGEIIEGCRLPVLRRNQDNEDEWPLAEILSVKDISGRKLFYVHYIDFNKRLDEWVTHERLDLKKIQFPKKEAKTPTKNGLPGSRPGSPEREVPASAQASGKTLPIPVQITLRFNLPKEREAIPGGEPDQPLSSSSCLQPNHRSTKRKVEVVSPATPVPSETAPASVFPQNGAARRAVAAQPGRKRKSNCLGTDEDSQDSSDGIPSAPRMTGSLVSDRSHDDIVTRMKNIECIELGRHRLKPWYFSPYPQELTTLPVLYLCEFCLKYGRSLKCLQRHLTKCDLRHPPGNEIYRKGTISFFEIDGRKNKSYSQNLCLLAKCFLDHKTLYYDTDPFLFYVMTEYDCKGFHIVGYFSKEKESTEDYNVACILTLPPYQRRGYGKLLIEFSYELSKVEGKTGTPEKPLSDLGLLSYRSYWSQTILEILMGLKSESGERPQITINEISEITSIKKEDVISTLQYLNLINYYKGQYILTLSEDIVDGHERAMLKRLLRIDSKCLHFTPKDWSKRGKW
# Results are given in words; binding and its absence hold for the method and conditions named. For part of these data: Binding seen in cells or lysates may run through a third protein. Some entries that bind do so weakly or less than the wild type.
# Assays:
# GST-EPC1(644-799) = GST-EPC1(644-799) (UniProt Q9H2F5); assay: pull-down
# GST-EPC1(729-799) = GST-EPC1(729-799) (UniProt Q9H2F5); assay: pull-down
# GST-EPC1(673-776) = GST-EPC1(673-776) (UniProt Q9H2F5); assay: pull-down
# GST-EPC1(644-672) = GST-EPC1(644-672) (UniProt Q9H2F5); assay: pull-down
# [1] = target: 3xFlag-tagged EPC1 L651D/A660D/L663D (UniProt Q9H2F5); assay: co-IP
# 3xFlag-tagged EPC1 WT = 3xFlag-tagged EPC1 WT (UniProt Q9H2F5); assay: co-IP
# [2] = target: 3xFlag-tagged EPC1(1-464) (UniProt Q9H2F5); assay: co-IP
binding (GST-EPC1(644-799)),binding (GST-EPC1(729-799)),binding (GST-EPC1(673-776)),binding (GST-EPC1(644-672)),Substance,binding [1],binding (3xFlag-tagged EPC1 WT),binding [2]
binds,no binding,no binding,binds,His-MBTD1 (from UniProt Q05BQ5 1-628),–,–,–
–,–,–,–,"MBTD1 (endogenous, K562) (from UniProt Q05BQ5 1-628)",no binding,binds,no binding
–,–,–,–,"Tip60 (endogenous, K562) (from UniProt Q92993 1-513) (enzyme)",binds,binds,–
